Results deposited as PubChem BioAssay AID652243 (Drosophila RNAi Screening Center, 2013).

- Test: 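Knock-downs that decrease or increase androgen receptor reporter signal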 (primary screen)
- Cell system: Drosophila S2R+ cells
- Reagent: long dsRNA against Drosophila genes
- Time to read-out: 72 h (48 h, then 24 h hormone)
- Conditions: synthetic androgen R1881 at 10 nM for 24 h
- Measurement: 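Firefly light from an androgen-responsive reporter and Renilla control light per well, raw and unnormalised, for each of two replicates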
- Reading the numbers: firefly reporter light: higher = more light from androgen-responsive reporter; Renilla control light: higher = more constitutive control signal (cell number, transfection)
- Rule for the call: 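Across duplicate plates, a knock-down whose log firefly/Renilla ratio shifted a set fold down or up from the GFP/LacZ control mean was a hit; the downward cut appears as both 1.5 and 3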
- Meaning of the calls: active = hit: reporter lowered or raised; inactive = no hit
The screen tested about 24,000 reagents; shown is a random part of those with a known target gene and a result. Of all reagents, 246 (1%) were called active. 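Plates not normalised; calls are printed but the firefly/Renilla ratio behind them is not deposited; fold cut for lowering reported inconsistently.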 Raw values vary from plate to plate and are shown uncorrected. Names joined by + are all predicted targets of the reagent. Not given: the amount of reagent.

gene	amplicon	firefly reporter light, replicate 1	firefly reporter light, replicate 2	Renilla control light, replicate 1	Renilla control light, replicate 2	Outcome
CG11741 (GeneID 5740784)	DRSC14367	62623	78855	2.16e6	1.85e6	inactive
Obp47a (GeneID 36162)	DRSC06255	2.58e5	2.40e5	1.19e6	1.45e6	inactive
Obp47a (GeneID 36162)	DRSC26247	2.56e5	2.37e5	5.81e5	5.77e5	inactive
CG30458 (GeneID 246624)	DRSC28635	3.53e5	3.50e5	1.11e6	1.25e6	inactive
Snx21 (GeneID 33466)	DRSC00564	1.11e6	9.62e5	3.45e6	2.39e6	inactive
Snx21 (GeneID 33466)	DRSC28493	3.20e5	6.20e5	5.71e5	1.13e6	inactive
Ctu2 (GeneID 35234)	DRSC02024	6.29e5	6.25e5	1.68e6	2.06e6	inactive
Ctu2 (GeneID 35234)	DRSC29317	6.23e5	7.63e5	1.16e6	1.16e6	inactive
GluRIID (GeneID 44483)	DRSC16723	3.74e5	3.38e5	2.45e6	3.33e6	inactive
GluRIID (GeneID 44483)	DRSC24866	4.96e5	3.97e5	4.40e5	4.92e5	inactive
CG8229 + CG33199	DRSC05134	79928	1.42e5	2.38e5	3.23e5	inactive
CG8229 + CG33199	DRSC27680	1.77e5	1.75e5	4.49e5	5.51e5	inactive
PIG-Wa (GeneID 33425)	DRSC00728	1.27e5	1.08e5	7.91e5	7.31e5	inactive
CG7530 (GeneID 41784)	DRSC16255	6.03e5	6.02e5	1.56e6	1.74e6	inactive
CG7530 (GeneID 41784)	DRSC25476	6.08e5	6.65e5	1.10e6	1.26e6	inactive
CG3587 (GeneID 31160)	DRSC18541	3.89e5	3.02e5	1.43e6	6.84e5	inactive
CG3587 (GeneID 31160)	DRSC21966	5.96e5	5.09e5	1.43e6	1.03e6	inactive
CG5162 (GeneID 32709)	DRSC19935	4.81e5	3.86e5	3.58e6	3.26e6	inactive
B-H1 (GeneID 32724)	DRSC21922	7.01e5	7.35e5	1.59e6	1.46e6	inactive
B-H1 (GeneID 32724)	DRSC27190	3.58e5	4.34e5	8.01e5	7.82e5	inactive
Actn (GeneID 31166)	DRSC17724	75122	64978	5.62e5	4.22e5	inactive
Actn (GeneID 31166)	DRSC25653	5.60e5	5.76e5	1.07e6	9.26e5	inactive
Arfip (GeneID 41353)	DRSC15179	42774	67543	4.38e5	5.11e5	inactive
Arfip (GeneID 41353)	DRSC27068	3.79e5	2.81e5	9.75e5	5.30e5	inactive
g (GeneID 44819)	DRSC20335	3.71e5	4.47e5	3.91e6	4.45e6	inactive
g (GeneID 44819)	DRSC26118	4.45e5	3.56e5	8.00e5	6.88e5	inactive
CG4367 (GeneID 42409)	DRSC15568	2.29e5	2.14e5	2.68e6	3.09e6	inactive
tant (GeneID 44785)	DRSC11401	53134	54113	7.40e5	1.19e6	inactive
raptor (GeneID 31543)	DRSC18359	1.32e5	1.11e5	1.21e6	1.27e6	inactive
CG3358 (GeneID 35604)	DRSC04992	6.24e5	3.59e5	1.64e6	1.37e6	inactive
Mics1 (GeneID 40898)	DRSC12537	61353	1.10e5	1.53e6	1.61e6	inactive
CG3225 (GeneID 33680)	DRSC00578	7.58e5	1.04e6	2.04e6	2.07e6	inactive
CG3225 (GeneID 33680)	DRSC30078	9.67e5	1.17e6	1.22e6	1.05e6	inactive
CG5770 (GeneID 37054)	DRSC06954	9.66e5	2.05e5	1.42e6	4.66e5	inactive
CG5770 (GeneID 37054)	DRSC24281	6.10e5	7.74e5	9.03e5	1.12e6	inactive
Prosalpha6 (GeneID 34359)	DRSC03401	1.86e5	1.28e5	7.46e5	9.85e5	inactive
Nazo (GeneID 40976)	DRSC14343	1.34e5	1.69e5	2.85e6	2.17e6	inactive
CG2217 + CG42740	DRSC14141	69846	1.22e5	6.97e5	8.34e5	inactive
CG13003 (GeneID 32675)	DRSC19522	6.65e5	6.51e5	3.22e6	2.39e6	inactive
Mlc2 (GeneID 43587)	DRSC16741	97211	62780	8.94e5	6.04e5	inactive
Mlc2 (GeneID 43587)	DRSC28878	7.15e5	7.67e5	1.51e6	1.23e6	inactive
CG13872 (GeneID 37273)	DRSC06431	62665	1.04e5	1.08e6	1.04e6	inactive
wkd (GeneID 41390)	DRSC15777	2.08e5	1.68e5	2.50e6	2.01e6	inactive
CG10214 (GeneID 42811)	DRSC14213	1.44e5	92380	8.36e5	5.35e5	inactive
CG3253 (GeneID 37861)	DRSC04350	4.35e5	4.84e5	1.87e6	2.13e6	active
CG3253 (GeneID 37861)	DRSC29358	5.41e5	5.04e5	1.11e6	1.11e6	inactive
CG15708 (GeneID 36805)	DRSC06579	56622	1.01e5	1.53e6	1.53e6	inactive
TM9SF3 (GeneID 38635)	DRSC09747	1.38e5	1.23e5	1.77e6	1.91e6	inactive
InR (GeneID 42549)	DRSC16717	2.88e5	2.12e5	3.49e6	3.48e6	inactive
InR (GeneID 42549)	DRSC36685	8.45e5	7.76e5	1.84e6	1.83e6	inactive
InR (GeneID 42549)	DRSC36686					inactive
Wdr62 (GeneID 33367)	DRSC00081	1.49e5	1.98e5	3.03e5	3.95e5	inactive
Wdr62 (GeneID 33367)	DRSC21913	9.13e5	7.12e5	2.83e5	3.57e5	inactive
Wdr62 (GeneID 33367)	DRSC36508	8.95e5	6.53e5	1.64e6	1.22e6	inactive
Wdr62 (GeneID 33367)	DRSC36509	9.10e5	9.14e5	1.65e6	1.41e6	inactive
Glut4EF (GeneID 41217)	DRSC14512	97460	89743	1.89e6	2.32e6	inactive
Glut4EF (GeneID 41217)	DRSC14541	76581	88357	2.86e6	2.16e6	inactive
Glut4EF (GeneID 41217)	DRSC14542	2.10e5	1.78e5	2.70e6	1.69e6	inactive
Glut4EF (GeneID 41217)	DRSC14543	1069	1183	826		inactive
Glut4EF (GeneID 41217)	DRSC23038	3.40e5	4.80e5	9.89e5	9.90e5	inactive
Glut4EF (GeneID 41217)	DRSC28624	2.22e5	2.69e5	1.23e6	1.44e6	inactive
Glut4EF (GeneID 41217)	DRSC29228	4.29e5	4.31e5	9.05e5	8.99e5	inactive
Glut4EF (GeneID 41217)	DRSC36546	6.71e5	6.48e5	1.28e6	1.47e6	inactive
Glut4EF (GeneID 41217)	DRSC36547	6.37e5	5.94e5	1.71e6	1.72e6	inactive
Glut4EF (GeneID 41217)	DRSC36548	9.22e5	7.72e5	1.62e6	1.28e6	inactive
Glut4EF (GeneID 41217)	DRSC36549	7.17e5	6.43e5	1.47e6	1.23e6	inactive
Krn (GeneID 326198)	DRSC11202	3.53e5	3.21e5	1.23e6	1.58e6	inactive
unc80 (GeneID 43324)	DRSC15329	2.24e5	2.15e5	2.46e6	2.65e6	inactive
CG16904 (GeneID 41212)	DRSC15161	1.61e5	37998	9.18e5	5.11e5	inactive
CG16904 (GeneID 41212)	DRSC25306	1.12e6	1.34e6	7.13e5	8.46e5	inactive
CG7739 (GeneID 39684)	DRSC10910	78145	62814	1.31e6	7.26e5	inactive
CCT1 (GeneID 42649)	DRSC16877	2.57e5	2.70e5	2.95e6	2.61e6	inactive
CCT1 (GeneID 42649)	DRSC26661	2.53e5	2.49e5	6.73e5	5.01e5	inactive
Pdi (GeneID 39651)	DRSC11250	2.37e5	2.76e5	2.13e6	2.20e6	inactive
Pdi (GeneID 39651)	DRSC26376	5.18e5	5.62e5	8.07e5	6.97e5	inactive

Records listed so far whose target name begins with W or w (5):
gene	amplicon	firefly reporter light, replicate 1	firefly reporter light, replicate 2	Renilla control light, replicate 1	Renilla control light, replicate 2	Outcome
wkd (GeneID 41390)	DRSC15777	2.08e5	1.68e5	2.50e6	2.01e6	inactive
Wdr62 (GeneID 33367)	DRSC00081	1.49e5	1.98e5	3.03e5	3.95e5	inactive
Wdr62 (GeneID 33367)	DRSC21913	9.13e5	7.12e5	2.83e5	3.57e5	inactive
Wdr62 (GeneID 33367)	DRSC36508	8.95e5	6.53e5	1.64e6	1.22e6	inactive
Wdr62 (GeneID 33367)	DRSC36509	9.10e5	9.14e5	1.65e6	1.41e6	inactive
